{"source": "paper PMC6078311", "about": "“Localization and functional characterization of the pathogenesis-related proteins Rbe1p and Rbt4p in Candida albicans” (PLoS ONE, 2018)", "binders": {"B1": {"name": "Rbe1p with a C-terminal V5/His6-tag (protein, UniProt Q59ZX3 20-271)", "chain": "ATITKFFTASTQTLFVTQTSQTVVATKSFVETIYSAPPKQLTSKTQDSTSPTTSSVNSLTSSSATSYVETTTPAPSSSTLTTSTISSSTASEDSDATPTADVEFAEEILKEHNVKRALHGVPALSWSNKLAEYAQDYANTGFDCSNLNLKHSGGPYGENLAAGYMGGISPVDAWYDEISMVDWNNVDFTESTGHFTQLVWRSTTQVGCAKMMCSTAWRQITVCEYLPRGNVIGLNVTSGHSYFVDNVLPPLK", "modifications": "O-glycosylated and N-glycosylated (sites not given)"}}, "target": "Rbe1p with a C-terminal V5/His6-tag (Candida albicans) (UniProt Q59ZX3)", "assay": "affinity purification with mass spectrometry; V5-tag affinity purification from the DTT-sensitive cell wall fraction of C. albicans yeast cells; elution separated by SDS-PAGE, Coomassie-stained ~135 kDa band excised and analysed by Nano-LC-MS/MS, compared with the untagged control strain", "note": "These are yes or no findings as the source states them, for the method shown. In cells and extracts the contact can be indirect. These calls come from enrichment with a bait or labelling near it, and not all partners need be listed. Sequences can lack the tags named with a protein."}
{"binder": "B1", "values": [{"measurement": "binding", "value": "binds"}]}
